We go through one molecule from publication PMC11638158.

No constants are given. Whether binding was seen depends on the method and setting. In cells and extracts the contact can be indirect. Some results given as binding are weak or reduced against the parent protein; the word gives no strength. Tags and fused reporters may be left off the sequences shown.

This assay concerns the target T1, RYBP-FLAG (RING1 and YY1 binding protein) (UniProt Q8CCI5).
T1 sequence: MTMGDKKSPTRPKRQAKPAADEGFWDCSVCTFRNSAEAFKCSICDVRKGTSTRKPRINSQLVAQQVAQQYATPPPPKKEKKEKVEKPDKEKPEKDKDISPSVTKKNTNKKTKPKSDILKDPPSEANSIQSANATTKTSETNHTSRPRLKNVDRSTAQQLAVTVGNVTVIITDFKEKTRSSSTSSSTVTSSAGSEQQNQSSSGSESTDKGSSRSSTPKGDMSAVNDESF
The assay can be described thus: co-IP; HEK293 cells co-transfected with prk7-Brachyury and pcDNA3.1-Rybp-FLAG; lysate in EB buffer (50 mM HEPES, 150 mM NaCl, 0.5 mM MgCl2, 0.1% NP40, 5% glycerol, 0.5 mM DTT, MG132, benzonase); anti-FLAG-M2 magnetic beads, 4°C, 90 min; elution with 3xFLAG peptide; blot with anti-BRACHYURY and anti-FLAG.

B1: BRACHYURY (protein, UniProt P20293 1-436)
chain: MSSPGTESAGKSLQYRVDHLLSAVESELQAGSEKGDPTERELRVGLEESELWLRFKELTNEMIVTKNGRRMFPVLKVNVSGLDPNAMYSFLLDFVTADNHRWKYVNGEWVPGGKPEPQAPSCVYIHPDSPNFGAHWMKAPVSFSKVKLTNKLNGGGQIMLNSLHKYEPRIHIVRVGGPQRMITSHCFPETQFIAVTAYQNEEITALKIKYNPFAKAFLDAKERNDHKDVMEEPGDCQQPGYSQWGWLVPGAGTLCPPASSHPQFGGSLSLPSTHGCERYPALRNHRSSPYPSPYAHRNSSPTYADNSSACLSMLQSHDNWSSLGVPGHTSMLPVSHNASPPTGSSQYPSLWSVSNGTITPGSQTAGVSNGLGAQFFRGSPAHYTPLTHTVSAATSSSSGSPMYEGAATVTDISDSQYDTAQSLLIASWTPVSPPSM
Consider B1, for which the binding result is “binds”.
